These are yes or no findings as the source states them, for the method shown. In cells and extracts the contact can be indirect. These calls come from enrichment with a bait or labelling near it, and not all partners need be listed. For some of these results: A no says only that the protein was not detected with the bait. Where a sequence is shown, tags or fusion partners need not be part of it.
Legend:
[1] = molecular target: T1, SNPC-4::3xFlag (C. elegans) (UniProt P91868); experiment: affinity purification with mass spectrometry; anti-Flag (M2 crosslinked to Protein G Dynabeads) IP of SNPC-4::3xFlag from lysate of him-8(e1489) L4 worms grown at 25°C; no-tag him-8(-) control; benzonase-treated lysate, 50 mM Tris-HCl pH 8.0, 150 mM NaCl, 5 mM MgCl2, 1 mM EGTA, 0.1% NP-40, 10% glycerol; FLAG peptide elution; n = 2 biological replicates
T1 sequence: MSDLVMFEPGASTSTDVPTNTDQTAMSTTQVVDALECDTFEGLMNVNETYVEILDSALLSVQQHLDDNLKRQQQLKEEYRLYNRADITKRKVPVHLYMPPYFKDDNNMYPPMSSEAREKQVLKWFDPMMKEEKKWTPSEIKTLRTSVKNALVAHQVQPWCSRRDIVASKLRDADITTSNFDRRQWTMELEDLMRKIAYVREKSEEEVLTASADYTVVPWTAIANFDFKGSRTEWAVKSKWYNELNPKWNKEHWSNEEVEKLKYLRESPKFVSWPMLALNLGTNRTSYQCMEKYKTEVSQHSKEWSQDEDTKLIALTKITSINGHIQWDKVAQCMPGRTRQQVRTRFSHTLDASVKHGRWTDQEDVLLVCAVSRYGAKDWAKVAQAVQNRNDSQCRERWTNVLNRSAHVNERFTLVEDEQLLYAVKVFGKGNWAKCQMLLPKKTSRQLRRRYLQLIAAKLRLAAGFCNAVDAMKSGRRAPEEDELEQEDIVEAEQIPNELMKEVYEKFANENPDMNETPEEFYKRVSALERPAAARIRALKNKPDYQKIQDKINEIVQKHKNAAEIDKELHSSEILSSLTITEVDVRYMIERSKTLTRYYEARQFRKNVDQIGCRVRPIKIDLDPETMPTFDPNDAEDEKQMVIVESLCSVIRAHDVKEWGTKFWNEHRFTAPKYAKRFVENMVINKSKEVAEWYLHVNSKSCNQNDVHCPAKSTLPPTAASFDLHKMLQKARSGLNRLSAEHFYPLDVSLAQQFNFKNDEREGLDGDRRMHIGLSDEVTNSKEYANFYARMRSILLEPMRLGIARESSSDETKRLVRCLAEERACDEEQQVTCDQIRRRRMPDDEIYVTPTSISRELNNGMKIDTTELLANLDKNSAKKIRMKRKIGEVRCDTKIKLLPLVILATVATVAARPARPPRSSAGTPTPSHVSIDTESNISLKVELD

Chains of the proteins cited; added tags and fusions are not shown. Lines headed by an entry give the natural chain unless they say otherwise; changes in a name come on top.
UniProt Q23096: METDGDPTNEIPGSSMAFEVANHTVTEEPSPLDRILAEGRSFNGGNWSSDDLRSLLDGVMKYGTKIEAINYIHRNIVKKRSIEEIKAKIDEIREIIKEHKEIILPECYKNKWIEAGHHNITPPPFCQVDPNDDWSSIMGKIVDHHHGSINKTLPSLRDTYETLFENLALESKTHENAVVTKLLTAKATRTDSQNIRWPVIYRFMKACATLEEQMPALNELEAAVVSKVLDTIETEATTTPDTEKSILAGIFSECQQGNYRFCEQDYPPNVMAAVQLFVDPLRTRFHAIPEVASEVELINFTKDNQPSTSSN

[2] = molecular target: T1, SNPC-4::3xFlag (C. elegans); experiment: affinity purification with mass spectrometry; anti-Flag (M2 crosslinked to Protein G Dynabeads) IP of SNPC-4::3xFlag from lysate of fem-1(hc17) females grown at 25°C; no-tag fem-1(-) control; benzonase-treated lysate, 50 mM Tris-HCl pH 8.0, 150 mM NaCl, 5 mM MgCl2, 1 mM EGTA, 0.1% NP-40, 10% glycerol; FLAG peptide elution; n = 2 biological replicates

Substance	binding [1]	binding [2]
SNPC-1.3 (C. elegans)	binds	no binding (only in feminized fem-1(-) mutants)
TOFU-5 (from UniProt Q23096)	binds	binds
